Some results were stated once for a whole list of compounds, not compound by compound.
Tested on: SNI rats
Experiment: spared nerve injury (SNI) model, dynamic plantar aesthesiometer
Type: in vivo, rat
Conditions: 100 mg/kg s.c.
Procedure: Spared nerve injury (SNI) of the sciatic nerve and measurement of allodynia with the dynamic plantar aesthesiometer. SNI was performed according to the method of Decosterd and Woolf (2000). Rats were anaesthetized with sodium pentobarbital (50 mg/kg i.p.). The sciatic nerve was exposed at mid-thigh level […] to the trifurcation and freed of connective tissue; the three peripheral branches (sural, common peroneal, and tibial nerves) of the sciatic nerve were exposed without stretching nerve structures. Both tibial and common peroneal nerves were ligated and transected together. The sham procedure consisted of the same surgery without ligation and transection of the nerves. Fourteen days after SNI, mechanical allodynia was measured using the dynamic plantar aesthesiometer (Ugo Basile, Varese, Italy). […] The force inducing paw withdrawal was recorded to the nearest 0.1 g. Nociceptive responses for mechanical sensitivity (mechanical withdrawal threshold) were measured in grams before and after vehicle or drug administration by an experimenter blind to the treatments. […] Nociceptive responses for mechanical sensitivity were expressed as mean±SEM (g). […]
Statistical Analysis: Data analysis was done using SigmaPlot 12 (Systat Software, Inc.). […] All data are expressed as mean±Standard Error of the Mean (SEM). […]

With `NCC1(CC(=O)O)CCCCC1` [GBP, gabapentin, reference compound] the “duration of decrease in mechanical allodynia after administration” value was “up to 7 h”.

Reference: patent publication US20160221932A1, “Methods and Uses of Melatonin Ligands” (priority 2013, published 2016)
